{"sequences": {"note": "Protein sequences, listed by entry. Tags and fused reporters are not part of them.", "UniProt Q96EP0": "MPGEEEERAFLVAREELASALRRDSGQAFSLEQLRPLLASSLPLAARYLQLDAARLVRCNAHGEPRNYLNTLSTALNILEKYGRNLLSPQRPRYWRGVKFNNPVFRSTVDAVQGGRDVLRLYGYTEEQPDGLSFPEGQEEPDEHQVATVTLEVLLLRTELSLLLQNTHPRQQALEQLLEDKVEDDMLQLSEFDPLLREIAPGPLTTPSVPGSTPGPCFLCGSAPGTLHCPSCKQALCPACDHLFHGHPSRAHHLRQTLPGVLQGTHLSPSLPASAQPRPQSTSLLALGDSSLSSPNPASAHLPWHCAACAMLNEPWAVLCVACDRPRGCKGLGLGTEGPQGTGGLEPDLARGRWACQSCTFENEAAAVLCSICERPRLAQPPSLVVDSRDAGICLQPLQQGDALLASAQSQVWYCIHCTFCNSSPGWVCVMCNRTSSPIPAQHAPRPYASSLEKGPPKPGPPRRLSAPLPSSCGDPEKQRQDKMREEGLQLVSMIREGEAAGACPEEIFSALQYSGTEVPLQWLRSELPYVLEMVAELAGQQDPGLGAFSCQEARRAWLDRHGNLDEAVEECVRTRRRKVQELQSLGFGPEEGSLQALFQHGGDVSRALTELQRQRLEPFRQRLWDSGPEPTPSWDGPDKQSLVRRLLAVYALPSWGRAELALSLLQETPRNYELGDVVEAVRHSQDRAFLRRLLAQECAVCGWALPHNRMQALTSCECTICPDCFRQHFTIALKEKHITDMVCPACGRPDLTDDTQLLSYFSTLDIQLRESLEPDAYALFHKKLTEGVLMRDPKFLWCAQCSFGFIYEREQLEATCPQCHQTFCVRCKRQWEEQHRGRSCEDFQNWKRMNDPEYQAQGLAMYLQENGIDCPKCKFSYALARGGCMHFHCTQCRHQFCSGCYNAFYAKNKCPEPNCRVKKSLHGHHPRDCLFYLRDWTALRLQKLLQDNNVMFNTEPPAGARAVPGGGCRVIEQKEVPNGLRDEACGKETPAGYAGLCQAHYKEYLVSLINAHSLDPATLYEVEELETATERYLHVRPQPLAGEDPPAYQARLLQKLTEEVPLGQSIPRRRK"}, "source": "paper PMC4819907", "molecular_target": "T1, FLAG-tagged CYLD (UniProt Q9NQC7)", "T1 sequence": "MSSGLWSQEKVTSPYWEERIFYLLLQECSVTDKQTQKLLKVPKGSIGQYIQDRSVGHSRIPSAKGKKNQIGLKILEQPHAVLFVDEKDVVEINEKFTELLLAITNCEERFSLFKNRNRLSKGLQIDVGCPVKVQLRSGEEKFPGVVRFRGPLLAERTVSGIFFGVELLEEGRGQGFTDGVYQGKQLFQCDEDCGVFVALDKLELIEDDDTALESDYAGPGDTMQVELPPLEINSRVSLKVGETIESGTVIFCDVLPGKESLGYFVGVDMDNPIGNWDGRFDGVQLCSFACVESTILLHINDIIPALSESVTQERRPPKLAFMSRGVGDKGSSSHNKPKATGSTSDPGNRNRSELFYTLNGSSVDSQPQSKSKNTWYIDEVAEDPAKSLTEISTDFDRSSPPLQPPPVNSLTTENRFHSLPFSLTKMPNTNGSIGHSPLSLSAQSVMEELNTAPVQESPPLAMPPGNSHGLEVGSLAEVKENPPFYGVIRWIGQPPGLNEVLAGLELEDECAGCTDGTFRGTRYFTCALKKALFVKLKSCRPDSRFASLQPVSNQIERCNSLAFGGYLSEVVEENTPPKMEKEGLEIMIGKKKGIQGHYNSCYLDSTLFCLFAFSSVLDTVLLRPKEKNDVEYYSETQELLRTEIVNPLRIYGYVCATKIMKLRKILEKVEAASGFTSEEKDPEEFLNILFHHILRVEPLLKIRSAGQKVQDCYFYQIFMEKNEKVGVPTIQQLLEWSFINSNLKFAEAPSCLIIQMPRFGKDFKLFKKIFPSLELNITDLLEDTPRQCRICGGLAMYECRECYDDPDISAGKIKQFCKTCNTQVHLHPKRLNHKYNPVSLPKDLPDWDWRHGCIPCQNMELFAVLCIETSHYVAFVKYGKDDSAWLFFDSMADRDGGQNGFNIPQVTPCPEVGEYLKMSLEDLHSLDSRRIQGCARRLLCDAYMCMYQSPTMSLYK", "test": "co-IP; immunoprecipitation of exogenous FLAG-tagged CYLD; immunoblotting for HOIP", "note": "Results are given in words; binding and its absence hold for the method and conditions named. Binding seen in cells or lysates may run through a third protein. Some entries that bind do so weakly or less than the wild type. Sequences can lack the tags named with a protein.", "data": [{"substance": "HOIP (from UniProt Q96EP0 1-1072) (enzyme)", "values": [{"measurement": "binding", "value": "binds"}]}]}
